Experimental data from PubChem BioAssay AID186 (DTP/NCI, 2004).
The mice bore no tumour; each value counts animals alive of those treated. Survivors were counted at the toxicity check, usually on the fifth day, unless a day is given; later deaths do not show. Schedules are NCI's codes, read here as Q, the interval in days (D) or hours (H), X, the number of doses. Marks such as (2×) stand for listed records that agree. Some doses were run more than once; the results are listed from low to high.

Tested on: B6D2F1 mice, nontumored toxicity test, survival
Assay: NCI In Vivo Anticancer Drug Screen. Data for tumor model Nontumored Animals (Toxicity Test) in B6D2F1 (BDF1) mice

CN(Cc1cnc2nc(N)nc(N)c2n1)c1ccc(C(=O)N[C@@H](CCC(=O)O)C(=O)O)cc1
survivor count (dose: 0.05 mg/kg/injection, schedule: Q06HX024 (ip), vehicle: saline): 8 of 8 | survivor count (dose: 0.1 mg/kg/injection, schedule: Q06HX024 (ip), vehicle: saline): 8 of 8 | survivor count (dose: 0.2 mg/kg/injection, schedule: Q06HX024 (ip), vehicle: saline): 8 of 8 | survivor count (dose: 0.4 mg/kg/injection, schedule: Q06HX024 (ip), vehicle: saline): 8 of 8 | survivor count (dose: 0.8 mg/kg/injection, schedule: Q06HX024 (ip), vehicle: saline): 6 of 8 | survivor count (dose: 0.9 mg/kg/injection, schedule: Q01DX009 (ip), vehicle: sodium bicarbonate): 10 of 10 | survivor count (dose: 1.3 mg/kg/injection, schedule: Q01DX009 (ip), vehicle: sodium bicarbonate): 10 of 10 | survivor count (dose: 1.6 mg/kg/injection, schedule: Q06HX024 (ip), vehicle: saline): 5 of 8 | survivor count (dose: 2.0 mg/kg/injection, schedule: Q01DX009 (ip), vehicle: sodium bicarbonate): 10 of 10 | survivor count (dose: 3.0 mg/kg/injection, schedule: Q01DX009 (ip), vehicle: sodium bicarbonate): 9 of 10 and 10 of 10 | survivor count (dose: 3.2 mg/kg/injection, schedule: Q06HX024 (ip), vehicle: saline): 6 of 8 | survivor count (dose: 3.5 mg/kg/injection, schedule: Q01DX009 (ip), vehicle: sodium bicarbonate): 10 of 10 and 9 of 9 | survivor count (dose: 9.41 mg/kg/injection, schedule: Q04DX003 (ip), vehicle: sodium bicarbonate): 10 of 10 | survivor count (dose: 13.0 mg/kg/injection, schedule: Q04DX003 (ip), vehicle: sodium bicarbonate): 10 of 10 | survivor count (dose: 13.4 mg/kg/injection, schedule: Q04DX003 (ip), vehicle: sodium bicarbonate): 10 of 10 | survivor count (dose: 19.2 mg/kg/injection, schedule: Q04DX003 (ip), vehicle: sodium bicarbonate): 10 of 10 | survivor count (dose: 20.0 mg/kg/injection, schedule: Q04DX003 (ip), vehicle: sodium bicarbonate): 10 of 10 | survivor count (dose: 25.0 mg/kg/injection, schedule: Q04DX003 (ip), vehicle: sodium bicarbonate): 10 of 10 | survivor count (dose: 27.4 mg/kg/injection, schedule: Q04DX003 (ip), vehicle: sodium bicarbonate): 10 of 10 | survivor count (dose: 30.0 mg/kg/injection, schedule: Q04DX003 (ip), vehicle: sodium bicarbonate): 10 of 10 and 4 of 4 | survivor count (dose: 35.0 mg/kg/injection, schedule: Q04DX003 (ip), vehicle: sodium bicarbonate): 10 of 10 | survivor count (dose: 39.2 mg/kg/injection, schedule: Q04DX003 (ip), vehicle: sodium bicarbonate): 10 of 10 | survivor count (dose: 40.0 mg/kg/injection, schedule: Q04DX003 (ip), vehicle: sodium bicarbonate): 10 of 10 | survivor count (dose: 44.0 mg/kg/injection, schedule: Q04DX003 (ip), vehicle: sodium bicarbonate): 10 of 10 | survivor count (dose: 56.0 mg/kg/injection, schedule: Q04DX003 (ip), vehicle: sodium bicarbonate): 10 of 10 | survivor count (dose: 60.0 mg/kg/injection, schedule: Q04DX003 (ip), vehicle: sodium bicarbonate): 10 of 10 | survivor count (dose: 66.0 mg/kg/injection, schedule: Q04DX003 (ip), vehicle: sodium bicarbonate): 10 of 10 | survivor count (dose: 80.0 mg/kg/injection, schedule: Q04DX003 (ip), vehicle: sodium bicarbonate): 10 of 10 (2×) | survivor count (dose: 100.0 mg/kg/injection, schedule: Q04DX003 (ip), vehicle: sodium bicarbonate): 8 of 10 and 10 of 10 | survivor count (dose: 114.0 mg/kg/injection, schedule: Q04DX003 (ip), vehicle: sodium bicarbonate): 8 of 10 | survivor count (dose: 150.0 mg/kg/injection, schedule: Q04DX003 (ip), vehicle: sodium bicarbonate): 7 of 10 and 10 of 10 | survivor count (dose: 200.0 mg/kg/injection, schedule: Q04DX003 (ip), vehicle: sodium bicarbonate): 10 of 10

N#C[C@@H]1C2C=CC(CC2)[C@H]1C#N
survivor count (dose: 2.4 mg/kg/injection, schedule: Q01DX009 (ip), vehicle: gum acacia): 10 of 10 | survivor count (dose: 2.4 mg/kg/injection, schedule: Q03HX024 (ip), vehicle: gum acacia): 10 of 10 | survivor count (dose: 3.6 mg/kg/injection, schedule: Q01DX009 (ip), vehicle: gum acacia): 9 of 10 | survivor count (dose: 3.6 mg/kg/injection, schedule: Q03HX024 (ip), vehicle: gum acacia): 3 of 10 | survivor count (dose: 5.4 mg/kg/injection, schedule: Q01DX009 (ip), vehicle: gum acacia): 0 of 10 | survivor count (dose: 5.4 mg/kg/injection, schedule: Q03HX024 (ip), vehicle: gum acacia): 0 of 10 | survivor count (dose: 8.0 mg/kg/injection, schedule: Q01DX009 (ip), vehicle: gum acacia): 0 of 10 | survivor count (dose: 8.0 mg/kg/injection, schedule: Q03HX024 (ip), vehicle: gum acacia): 0 of 10 | survivor count (dose: 12.0 mg/kg/injection, schedule: Q01DX009 (ip), vehicle: gum acacia): 0 of 10 | survivor count (dose: 12.0 mg/kg/injection, schedule: Q03HX024 (ip), vehicle: gum acacia): 0 of 10 | survivor count (dose: 24.0 mg/kg/injection, schedule: Q01DX001 (ip), vehicle: gum acacia): 0 of 10 | survivor count (dose: 24.0 mg/kg/injection, schedule: Q04DX003 (ip), vehicle: gum acacia): 0 of 10 | survivor count (dose: 36.0 mg/kg/injection, schedule: Q01DX001 (ip), vehicle: gum acacia): 0 of 10 | survivor count (dose: 36.0 mg/kg/injection, schedule: Q04DX003 (ip), vehicle: gum acacia): 0 of 10 | survivor count (dose: 54.0 mg/kg/injection, schedule: Q01DX001 (ip), vehicle: gum acacia): 0 of 10 | survivor count (dose: 54.0 mg/kg/injection, schedule: Q04DX003 (ip), vehicle: gum acacia): 0 of 10 | survivor count (dose: 80.0 mg/kg/injection, schedule: Q01DX001 (ip), vehicle: gum acacia): 0 of 10 | survivor count (dose: 80.0 mg/kg/injection, schedule: Q04DX003 (ip), vehicle: gum acacia): 0 of 10 | survivor count (dose: 120.0 mg/kg/injection, schedule: Q01DX001 (ip), vehicle: gum acacia): 0 of 10 | survivor count (dose: 120.0 mg/kg/injection, schedule: Q04DX003 (ip), vehicle: gum acacia): 0 of 10
